Measured values reported in paper PMC8976838.
No constants are given. Whether binding was seen depends on the method and setting. In cells and extracts the contact can be indirect. Some entries that bind do so weakly or less than the wild type.

Chains of the proteins cited; added tags and fusions are not shown. Lines headed by an entry give the natural chain unless they say otherwise; changes in a name come on top. Residues count along the entry.
UniProt Q05086: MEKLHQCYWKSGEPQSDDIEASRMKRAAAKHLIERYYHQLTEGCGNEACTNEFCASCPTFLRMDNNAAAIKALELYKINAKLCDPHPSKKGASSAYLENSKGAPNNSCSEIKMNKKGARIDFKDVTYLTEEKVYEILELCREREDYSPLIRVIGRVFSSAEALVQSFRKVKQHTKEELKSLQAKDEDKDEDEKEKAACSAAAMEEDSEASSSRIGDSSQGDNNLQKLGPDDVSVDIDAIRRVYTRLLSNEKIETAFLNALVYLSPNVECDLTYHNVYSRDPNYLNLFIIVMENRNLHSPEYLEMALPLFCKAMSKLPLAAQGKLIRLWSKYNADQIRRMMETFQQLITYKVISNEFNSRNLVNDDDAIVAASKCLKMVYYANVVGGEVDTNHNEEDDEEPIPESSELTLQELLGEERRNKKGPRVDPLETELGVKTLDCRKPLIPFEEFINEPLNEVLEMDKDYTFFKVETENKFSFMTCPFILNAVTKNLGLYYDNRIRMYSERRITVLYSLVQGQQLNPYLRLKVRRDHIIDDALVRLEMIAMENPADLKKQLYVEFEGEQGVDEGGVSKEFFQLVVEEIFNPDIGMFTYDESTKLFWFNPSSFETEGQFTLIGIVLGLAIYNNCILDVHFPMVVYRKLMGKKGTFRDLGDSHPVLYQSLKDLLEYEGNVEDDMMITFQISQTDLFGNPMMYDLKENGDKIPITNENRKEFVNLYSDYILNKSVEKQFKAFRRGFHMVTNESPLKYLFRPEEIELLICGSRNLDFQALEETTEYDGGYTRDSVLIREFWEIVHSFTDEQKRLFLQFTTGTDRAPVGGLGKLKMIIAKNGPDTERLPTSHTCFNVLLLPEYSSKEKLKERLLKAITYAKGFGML
GST-UBE3A N-terminus (1–460): residues 1-460 of Q05086
UniProt O43293: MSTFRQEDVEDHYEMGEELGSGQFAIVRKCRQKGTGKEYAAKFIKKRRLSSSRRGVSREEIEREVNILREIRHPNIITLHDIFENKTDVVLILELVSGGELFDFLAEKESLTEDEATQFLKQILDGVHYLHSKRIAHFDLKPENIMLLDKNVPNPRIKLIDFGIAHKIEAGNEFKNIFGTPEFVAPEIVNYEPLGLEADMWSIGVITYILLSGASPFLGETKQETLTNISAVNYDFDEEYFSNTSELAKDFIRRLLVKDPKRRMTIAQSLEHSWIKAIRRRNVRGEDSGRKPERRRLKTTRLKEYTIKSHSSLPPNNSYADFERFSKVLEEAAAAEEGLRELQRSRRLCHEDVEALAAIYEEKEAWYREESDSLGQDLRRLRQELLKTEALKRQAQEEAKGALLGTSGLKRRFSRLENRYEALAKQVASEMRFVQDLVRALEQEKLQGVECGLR
UniProt Q86U86: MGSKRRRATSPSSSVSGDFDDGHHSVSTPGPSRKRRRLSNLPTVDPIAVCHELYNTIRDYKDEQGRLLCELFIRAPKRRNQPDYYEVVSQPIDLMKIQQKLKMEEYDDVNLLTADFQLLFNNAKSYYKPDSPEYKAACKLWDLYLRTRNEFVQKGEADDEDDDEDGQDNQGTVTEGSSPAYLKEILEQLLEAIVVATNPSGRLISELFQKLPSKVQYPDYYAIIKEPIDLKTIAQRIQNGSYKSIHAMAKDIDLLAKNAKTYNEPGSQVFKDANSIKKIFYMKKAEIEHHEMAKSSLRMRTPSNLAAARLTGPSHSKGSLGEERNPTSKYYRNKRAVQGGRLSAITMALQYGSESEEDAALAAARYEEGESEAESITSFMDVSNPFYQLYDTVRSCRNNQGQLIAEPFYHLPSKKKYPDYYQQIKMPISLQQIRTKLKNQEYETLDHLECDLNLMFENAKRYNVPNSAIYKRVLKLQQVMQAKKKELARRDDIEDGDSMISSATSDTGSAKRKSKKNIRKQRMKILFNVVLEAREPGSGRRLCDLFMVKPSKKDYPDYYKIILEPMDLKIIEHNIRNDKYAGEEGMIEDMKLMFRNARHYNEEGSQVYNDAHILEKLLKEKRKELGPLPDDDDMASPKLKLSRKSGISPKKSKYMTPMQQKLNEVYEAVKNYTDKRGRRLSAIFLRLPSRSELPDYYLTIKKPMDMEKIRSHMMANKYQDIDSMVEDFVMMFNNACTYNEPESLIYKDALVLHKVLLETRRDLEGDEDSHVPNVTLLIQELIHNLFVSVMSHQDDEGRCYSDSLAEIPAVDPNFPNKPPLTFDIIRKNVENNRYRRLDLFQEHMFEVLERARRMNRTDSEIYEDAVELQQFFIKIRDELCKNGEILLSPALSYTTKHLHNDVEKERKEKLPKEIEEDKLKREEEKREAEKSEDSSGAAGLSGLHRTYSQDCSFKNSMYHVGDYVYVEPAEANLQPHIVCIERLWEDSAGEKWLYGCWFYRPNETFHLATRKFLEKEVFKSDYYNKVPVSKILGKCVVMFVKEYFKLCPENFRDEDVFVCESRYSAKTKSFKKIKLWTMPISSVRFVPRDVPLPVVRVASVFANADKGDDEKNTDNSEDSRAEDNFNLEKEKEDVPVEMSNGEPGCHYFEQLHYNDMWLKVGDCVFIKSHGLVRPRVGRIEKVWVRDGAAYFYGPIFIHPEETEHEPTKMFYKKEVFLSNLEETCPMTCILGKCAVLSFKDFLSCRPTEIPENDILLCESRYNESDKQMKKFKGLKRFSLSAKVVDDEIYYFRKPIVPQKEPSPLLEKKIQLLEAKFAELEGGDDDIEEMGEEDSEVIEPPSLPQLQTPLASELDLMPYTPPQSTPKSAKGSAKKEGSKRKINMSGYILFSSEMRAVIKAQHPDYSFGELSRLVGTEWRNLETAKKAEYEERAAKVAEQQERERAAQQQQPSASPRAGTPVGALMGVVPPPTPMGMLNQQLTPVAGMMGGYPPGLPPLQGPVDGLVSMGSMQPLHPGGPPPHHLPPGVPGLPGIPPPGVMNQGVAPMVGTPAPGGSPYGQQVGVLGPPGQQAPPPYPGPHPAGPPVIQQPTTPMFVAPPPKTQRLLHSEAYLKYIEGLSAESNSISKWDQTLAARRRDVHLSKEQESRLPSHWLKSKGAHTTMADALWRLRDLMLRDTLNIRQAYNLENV

Tests used:
[1] = target: GST-UBE3A N-terminus (1–460) (UniProt Q05086); experiment: pull-down; GST-fused recombinant proteins (or GST-EV) as bait, 786-O whole-cell lysates, western blotting; only the target purified
[2] = target: GST-DAPK3 recombinant protein (UniProt O43293); experiment: as above
[3] = target: DAPK3, endogenous (human (endogenous in 293T, 786-O and ACHN)) (UniProt O43293); experiment: co-IP; RIPA lysates of 293T, 786-O or ACHN cells with protein A and G agarose beads and primary antibodies or IgG, 24 h at 4 °C, six washes with 1x TBST, western blotting; for PKA with UBE3A: 786-O cells with shControl or shDAPK3 (72 h) or transfected with DAPK3 plasmids (24 h)

“Polybromo 1 (PBRM1), endogenous (from UniProt Q86U86 1-1689)” was tested. Which binding [1] did it give?
Its binding is “binds”.

For “ubiquitin-protein ligase E3A (UBE3A), endogenous (from UniProt Q05086 1-875) (enzyme)”, which binding [2] is on record?
Its binding is “binds”.

What about the binding [3] of the same substance?
Its binding is “binds”.
